In patent US10556926B2, “Synthetic artificial peptides with antimicrobial effect” (priority 2014, dated 2020):
No end group written: not given here.

Columns and labels:
Staphylococcus xylosus = settings: LD50/MIC; LD50 of 128 used where LD50 above measured range; parentheses: MTC established but no LD50
Description: (§1) The minimum inhibitory concentration (MIC) of the peptides was carried out by way of example against gram(−) E. coli DH5α (and gram(+) Staphylococcus xylosus (both Deutsche Sammlung von Mikroorganismen and Zellkulturen, DSMZ) in a standardized microdilution method according to the general guidelines of the CLSI (Clinical and Laboratory Standards Institute 2006) and EUCAST (European Committee for Antimicrobial Susceptibility Testing of the European Society of Clinical Microbiology and Infectious Diseases 2003) with slight adaptations to the investigation of cationic antimicrobial peptides (Wiegand et al. 2008). The bacteria cells were cultivated in Mueller-Hinton-Boullion (MHB) to an optical density of 0.4 to 0.6 at 600 nm wavelength, corresponding to about 4·10^8 bacteria per ml. Then, the bacteria cultures were diluted to a bacteria concentration of about 1·10^5 bacteria per ml in sterile MHB. Using the peptides, series of 2-fold dilutions starting at 128 μM to the smallest dilution of 0.5 μM in MHB were prepared. The peptide dilutions were mixed with the dilute bacteria cultures in a […] in the chambers of a 96-well polypropylene microtiter plate (Starlab, Hamburg, Germany), so that the peptides were present in an end concentration between 64 μM and 0.25 μM at a bacteria concentration of 5·10^4 bacteria/ml. Sterile MHB served as negative control, and the positive control used as the corresponding bacteria concentration in MHB without the addition of peptide. The microtiter plates were incubated for 18 hours at 37° C. with shaking at 120 rpm in a climatically controlled chamber. After the incubation, the bacteria concentration was determined by renewed absorption measurement at a wavelength of 600 nm.

E. coli DH5α = settings: LD50/MIC; LD50 of 128 used where LD50 above measured range; parentheses: MTC established but no LD50
Description: as §1

With “GRFKRFRKKFKKLFKKLSPVIPLLHLG-OH [BMAP-27]” as the substance, how does the “Therapeutic ratio S. xylosus” value (Staphylococcus xylosus) read?
The value was 0.9.

What about the “Therapeutic ratio E. coli” value (E. coli DH5α) of the same substance?
Its value is 1.80.

For ILPWKWPWWPWRR [Indolicidin], which “Therapeutic ratio S. xylosus” value (Staphylococcus xylosus) is on record?
The value was 4.

What about the “Therapeutic ratio E. coli” value (E. coli DH5α) of the same substance?
Its value is 32.

With KILILIKRK-OH [N4] as the substance, how does the “Therapeutic ratio E. coli” value (E. coli DH5α) read?
The value was 1.8.

KRKRKILILIKRK-OH [N1] was tested. Which “Therapeutic ratio E. coli” value (E. coli DH5α) did it give?
The value was 4.5.

“MPRRRRSSSRPVRRRRRPRVSRRRRRRGGRRR (Protamine)” was tested. Which “Therapeutic ratio E. coli” value (E. coli DH5α) did it give?
The value was “(16)”.
